{"source": "the supplement of paper PMC6411743", "note": "± gives the standard deviation of the averaged measurements. The list shows a part of the results, in another mix than the full data. Most values lie at the level of the controls, where differences are scatter.", "data": [{"compound": "Nc1ncnc2c1ncn2[C@@H]1O[C@H](COP(=O)(O)OP(=O)(O)OP(=O)(O)O)[C@@H](O)[C@H]1O [adenosine triphosphate]", "experiment": "NP40-soluble protein abundance relative to vehicle (solubility fold change) (ratio); higher = more soluble protein in presence of ATP", "conditions": "concentration: 0.1mM", "procedure,_shortened": "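In three independent experiments, Jurkat crude lysate made by Dounce homogenisation was treated for 10 min at room temperature and then 3 min at 37 °C with eight concentrations ranging from 0.1 to 10 mM. It was then solubilised with 0.8% NP40 plus benzonase for 60 min at 4 °C and ultracentrifuged. The supernatant was TMT-labelled for LC-MS/MS, and each value is the fold change against the detergent-processed vehicle for the same replicate, using vsn-normalised intensities.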", "values": [{"target": "A0A0G2JLR5|A0A0G2JMW4|Q02833 and related entries (UniProt Q02833)", "NP40-soluble protein abundance": "0.898 ± 0.061"}, {"target": "B1AM27 and related entries (UniProt O14795)", "NP40-soluble protein abundance": "1.02 ± 0.021"}, {"target": "D3DQ64 and related entries (UniProt P27144)", "NP40-soluble protein abundance": "0.937 ± 0.14"}, {"target": "B8ZZY7 and related entries (UniProt P84101)", "NP40-soluble protein abundance": "0.969 ± 0.053"}, {"target": "A0A0U1RR06|A6NM71 and related entries (UniProt Q9Y484)", "NP40-soluble protein abundance": "1.09 ± 0.17"}, {"target": "B8ZZS2 and related entries (UniProt Q13506)", "NP40-soluble protein abundance": "1.15 ± 0.18"}, {"target": "B5MCF9 and related entries (UniProt O00541)", "NP40-soluble protein abundance": "0.975 ± 0.017"}, {"target": "A0A0U1RRH6 (UniProt O94880)", "NP40-soluble protein abundance": "1.01 ± 0.058"}, {"target": "C9JIF9 and related entries (UniProt P13798)", "NP40-soluble protein abundance": "1.02 ± 0.068"}, {"target": "A2A2V1 and related entries (UniProt P04156+A2A2V1)", "NP40-soluble protein abundance": "1.015 ± 0.0053"}, {"target": "D3YTK1 and related entries (UniProt Q9C0K0)", "NP40-soluble protein abundance": "1.03 ± 0.073"}, {"target": "B5MDF5 and related entries (UniProt P62826)", "NP40-soluble protein abundance": "1.04 ± 0.061"}, {"target": "B9A054 and related entries (UniProt Q8TEB9)", "NP40-soluble protein abundance": "1.03 ± 0.11"}, {"target": "C9J6B1 and related entries (UniProt P11234)", "NP40-soluble protein abundance": "1.04 ± 0.081"}, {"target": "B9EGE7 and related entries (UniProt Q8TCN5)", "NP40-soluble protein abundance": "0.919 ± 0.18"}, {"target": "B4DI03 and related entries (UniProt Q9BY50)", "NP40-soluble protein abundance": "1.02 ± 0.11"}, {"target": "UniProt A2VDJ0 and related entries", "NP40-soluble protein abundance": "1.04 ± 0.082"}, {"target": "B1AMW1 and related entries (UniProt P19256)", "NP40-soluble protein abundance": "0.894 ± 0.11"}, {"target": "ARHGAP10 (UniProt A1A4S6)", "NP40-soluble protein abundance": "0.975 ± 0.086"}, {"target": "B5MC15 and related entries (UniProt Q13191)", "NP40-soluble protein abundance": "0.994 ± 0.1"}, {"target": "A0A0G2JK44|P25440 and related entries (UniProt P25440)", "NP40-soluble protein abundance": "0.971 ± 0.045"}, {"target": "A2IDC6 and related entries (UniProt Q13084)", "NP40-soluble protein abundance": "0.914 ± 0.15"}, {"target": "A0A0G2JIW1|P0DMV8 and related entries (UniProt P0DMV9+P0DMV8)", "NP40-soluble protein abundance": "1.02 ± 0.022"}, {"target": "A6NF51 and related entries (UniProt O95861)", "NP40-soluble protein abundance": "0.989 ± 0.037"}, {"target": "C9IZQ1 and related entries (UniProt P43307)", "NP40-soluble protein abundance": "0.953 ± 0.077"}, {"target": "A8MST6 and related entries (UniProt Q5JTW2)", "NP40-soluble protein abundance": "1.02 ± 0.15"}, {"target": "B8ZZU6 and related entries (UniProt P15336)", "NP40-soluble protein abundance": "0.924 ± 0.057"}, {"target": "B1ANH0 and related entries (UniProt Q16774)", "NP40-soluble protein abundance": "0.964 ± 0.017"}, {"target": "ILVBL (UniProt A1L0T0)", "NP40-soluble protein abundance": "0.987 ± 0.022"}, {"target": "A0A0G2JNW7|Q9Y666 (UniProt Q9Y666)", "NP40-soluble protein abundance": "0.982 ± 0.015"}, {"target": "D6RC04 and related entries (UniProt Q9Y6G5)", "NP40-soluble protein abundance": "0.966 ± 0.035"}, {"target": "A6NIW2 and related entries (UniProt Q5JSL3)", "NP40-soluble protein abundance": "1.06 ± 0.05"}, {"target": "A6NMQ1 and related entries (UniProt P09884)", "NP40-soluble protein abundance": "1.04 ± 0.03"}, {"target": "B2R5W2 and related entries (UniProt P07910)", "NP40-soluble protein abundance": "0.884 ± 0.12"}, {"target": "B4DDF4 and related entries (UniProt Q99439)", "NP40-soluble protein abundance": "0.932 ± 0.025"}, {"target": "A6NG10 and related entries (UniProt Q969T9)", "NP40-soluble protein abundance": "0.937 ± 0.025"}, {"target": "C9J5C3 and related entries (UniProt Q9BUL8)", "NP40-soluble protein abundance": "0.981 ± 0.02"}, {"target": "B3KRD8 and related entries (UniProt O76054)", "NP40-soluble protein abundance": "1.04 ± 0.12"}]}]}
